Publication PMC10639050, “ZNF432 stimulates PARylation and inhibits DNA resection to balance PARPi sensitivity and resistance”
Results are given in words; binding and its absence hold for the method and conditions named. Binding seen in cells or lysates may run through a third protein. Some binding calls cover weakened binding; strength is not graded here.

Protein sequences, listed by entry. Tags and fused reporters are not part of them.
UniProt O94892: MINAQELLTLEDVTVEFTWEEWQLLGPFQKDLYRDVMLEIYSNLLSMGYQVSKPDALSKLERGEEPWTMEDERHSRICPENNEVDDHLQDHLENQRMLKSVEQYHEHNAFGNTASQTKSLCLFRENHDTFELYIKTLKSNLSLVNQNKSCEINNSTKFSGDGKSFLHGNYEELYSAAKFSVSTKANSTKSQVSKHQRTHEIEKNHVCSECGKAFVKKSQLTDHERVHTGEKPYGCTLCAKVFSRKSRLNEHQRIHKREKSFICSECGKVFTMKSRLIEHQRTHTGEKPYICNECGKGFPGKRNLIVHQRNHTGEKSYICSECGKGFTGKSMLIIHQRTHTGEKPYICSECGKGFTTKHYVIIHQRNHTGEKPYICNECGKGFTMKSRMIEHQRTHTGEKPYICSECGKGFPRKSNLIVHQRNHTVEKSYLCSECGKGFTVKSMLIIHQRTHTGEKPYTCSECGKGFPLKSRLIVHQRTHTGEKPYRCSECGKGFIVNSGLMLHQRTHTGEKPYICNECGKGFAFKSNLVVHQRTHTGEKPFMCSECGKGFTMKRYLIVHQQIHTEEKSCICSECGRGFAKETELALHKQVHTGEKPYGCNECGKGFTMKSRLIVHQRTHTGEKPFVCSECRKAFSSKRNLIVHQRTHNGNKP
UniProt P09874: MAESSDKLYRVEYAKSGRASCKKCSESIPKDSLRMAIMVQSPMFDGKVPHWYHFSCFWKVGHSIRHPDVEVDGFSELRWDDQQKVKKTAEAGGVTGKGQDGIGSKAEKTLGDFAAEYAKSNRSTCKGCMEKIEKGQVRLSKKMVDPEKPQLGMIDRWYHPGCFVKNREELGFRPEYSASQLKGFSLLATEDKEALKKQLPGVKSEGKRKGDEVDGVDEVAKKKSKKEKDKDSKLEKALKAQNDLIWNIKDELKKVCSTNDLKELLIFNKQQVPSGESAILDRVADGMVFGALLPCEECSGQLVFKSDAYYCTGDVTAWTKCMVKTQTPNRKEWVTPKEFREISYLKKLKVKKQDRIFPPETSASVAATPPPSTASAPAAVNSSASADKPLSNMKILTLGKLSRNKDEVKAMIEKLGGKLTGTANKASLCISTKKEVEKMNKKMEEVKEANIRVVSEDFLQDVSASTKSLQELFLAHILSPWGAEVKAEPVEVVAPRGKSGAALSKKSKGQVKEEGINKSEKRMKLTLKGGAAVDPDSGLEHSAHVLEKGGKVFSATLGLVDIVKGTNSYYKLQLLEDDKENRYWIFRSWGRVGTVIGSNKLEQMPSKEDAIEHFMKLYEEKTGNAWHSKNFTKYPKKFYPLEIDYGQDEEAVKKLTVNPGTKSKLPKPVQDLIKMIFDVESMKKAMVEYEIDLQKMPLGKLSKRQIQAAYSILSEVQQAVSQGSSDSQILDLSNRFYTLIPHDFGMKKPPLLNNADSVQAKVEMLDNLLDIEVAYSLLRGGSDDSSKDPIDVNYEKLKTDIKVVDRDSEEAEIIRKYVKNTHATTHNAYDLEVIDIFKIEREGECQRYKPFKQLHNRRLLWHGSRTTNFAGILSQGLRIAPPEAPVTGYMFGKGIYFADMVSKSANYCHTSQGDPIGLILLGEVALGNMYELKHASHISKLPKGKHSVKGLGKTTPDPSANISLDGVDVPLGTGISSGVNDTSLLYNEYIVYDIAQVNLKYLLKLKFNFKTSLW

Target: GFP-ZNF432 (expressed in HeLa cells) (human) (UniProt O94892)
Assay: pull-down; GFP-trap agarose beads on lysate of HeLa cells transfected with GFP-ZNF432, 10 Gy irradiation and 15 min recovery; 50 mM Tris-HCl pH 7.5, 150 mM NaCl, 0.5% NP-40, Benzonase 25 U/ml, 4°C for 4 h; Western blot

Substance: poly(ADP-ribose) polymerase-1 (endogenous, HeLa) (from UniProt P09874 1-1014)
- binding: binds
